The text below walks through data of PMC10502019.

Sequences of proteins named here, by UniProt entry; tags and fusion partners are left off.
UniProt E9PZQ0: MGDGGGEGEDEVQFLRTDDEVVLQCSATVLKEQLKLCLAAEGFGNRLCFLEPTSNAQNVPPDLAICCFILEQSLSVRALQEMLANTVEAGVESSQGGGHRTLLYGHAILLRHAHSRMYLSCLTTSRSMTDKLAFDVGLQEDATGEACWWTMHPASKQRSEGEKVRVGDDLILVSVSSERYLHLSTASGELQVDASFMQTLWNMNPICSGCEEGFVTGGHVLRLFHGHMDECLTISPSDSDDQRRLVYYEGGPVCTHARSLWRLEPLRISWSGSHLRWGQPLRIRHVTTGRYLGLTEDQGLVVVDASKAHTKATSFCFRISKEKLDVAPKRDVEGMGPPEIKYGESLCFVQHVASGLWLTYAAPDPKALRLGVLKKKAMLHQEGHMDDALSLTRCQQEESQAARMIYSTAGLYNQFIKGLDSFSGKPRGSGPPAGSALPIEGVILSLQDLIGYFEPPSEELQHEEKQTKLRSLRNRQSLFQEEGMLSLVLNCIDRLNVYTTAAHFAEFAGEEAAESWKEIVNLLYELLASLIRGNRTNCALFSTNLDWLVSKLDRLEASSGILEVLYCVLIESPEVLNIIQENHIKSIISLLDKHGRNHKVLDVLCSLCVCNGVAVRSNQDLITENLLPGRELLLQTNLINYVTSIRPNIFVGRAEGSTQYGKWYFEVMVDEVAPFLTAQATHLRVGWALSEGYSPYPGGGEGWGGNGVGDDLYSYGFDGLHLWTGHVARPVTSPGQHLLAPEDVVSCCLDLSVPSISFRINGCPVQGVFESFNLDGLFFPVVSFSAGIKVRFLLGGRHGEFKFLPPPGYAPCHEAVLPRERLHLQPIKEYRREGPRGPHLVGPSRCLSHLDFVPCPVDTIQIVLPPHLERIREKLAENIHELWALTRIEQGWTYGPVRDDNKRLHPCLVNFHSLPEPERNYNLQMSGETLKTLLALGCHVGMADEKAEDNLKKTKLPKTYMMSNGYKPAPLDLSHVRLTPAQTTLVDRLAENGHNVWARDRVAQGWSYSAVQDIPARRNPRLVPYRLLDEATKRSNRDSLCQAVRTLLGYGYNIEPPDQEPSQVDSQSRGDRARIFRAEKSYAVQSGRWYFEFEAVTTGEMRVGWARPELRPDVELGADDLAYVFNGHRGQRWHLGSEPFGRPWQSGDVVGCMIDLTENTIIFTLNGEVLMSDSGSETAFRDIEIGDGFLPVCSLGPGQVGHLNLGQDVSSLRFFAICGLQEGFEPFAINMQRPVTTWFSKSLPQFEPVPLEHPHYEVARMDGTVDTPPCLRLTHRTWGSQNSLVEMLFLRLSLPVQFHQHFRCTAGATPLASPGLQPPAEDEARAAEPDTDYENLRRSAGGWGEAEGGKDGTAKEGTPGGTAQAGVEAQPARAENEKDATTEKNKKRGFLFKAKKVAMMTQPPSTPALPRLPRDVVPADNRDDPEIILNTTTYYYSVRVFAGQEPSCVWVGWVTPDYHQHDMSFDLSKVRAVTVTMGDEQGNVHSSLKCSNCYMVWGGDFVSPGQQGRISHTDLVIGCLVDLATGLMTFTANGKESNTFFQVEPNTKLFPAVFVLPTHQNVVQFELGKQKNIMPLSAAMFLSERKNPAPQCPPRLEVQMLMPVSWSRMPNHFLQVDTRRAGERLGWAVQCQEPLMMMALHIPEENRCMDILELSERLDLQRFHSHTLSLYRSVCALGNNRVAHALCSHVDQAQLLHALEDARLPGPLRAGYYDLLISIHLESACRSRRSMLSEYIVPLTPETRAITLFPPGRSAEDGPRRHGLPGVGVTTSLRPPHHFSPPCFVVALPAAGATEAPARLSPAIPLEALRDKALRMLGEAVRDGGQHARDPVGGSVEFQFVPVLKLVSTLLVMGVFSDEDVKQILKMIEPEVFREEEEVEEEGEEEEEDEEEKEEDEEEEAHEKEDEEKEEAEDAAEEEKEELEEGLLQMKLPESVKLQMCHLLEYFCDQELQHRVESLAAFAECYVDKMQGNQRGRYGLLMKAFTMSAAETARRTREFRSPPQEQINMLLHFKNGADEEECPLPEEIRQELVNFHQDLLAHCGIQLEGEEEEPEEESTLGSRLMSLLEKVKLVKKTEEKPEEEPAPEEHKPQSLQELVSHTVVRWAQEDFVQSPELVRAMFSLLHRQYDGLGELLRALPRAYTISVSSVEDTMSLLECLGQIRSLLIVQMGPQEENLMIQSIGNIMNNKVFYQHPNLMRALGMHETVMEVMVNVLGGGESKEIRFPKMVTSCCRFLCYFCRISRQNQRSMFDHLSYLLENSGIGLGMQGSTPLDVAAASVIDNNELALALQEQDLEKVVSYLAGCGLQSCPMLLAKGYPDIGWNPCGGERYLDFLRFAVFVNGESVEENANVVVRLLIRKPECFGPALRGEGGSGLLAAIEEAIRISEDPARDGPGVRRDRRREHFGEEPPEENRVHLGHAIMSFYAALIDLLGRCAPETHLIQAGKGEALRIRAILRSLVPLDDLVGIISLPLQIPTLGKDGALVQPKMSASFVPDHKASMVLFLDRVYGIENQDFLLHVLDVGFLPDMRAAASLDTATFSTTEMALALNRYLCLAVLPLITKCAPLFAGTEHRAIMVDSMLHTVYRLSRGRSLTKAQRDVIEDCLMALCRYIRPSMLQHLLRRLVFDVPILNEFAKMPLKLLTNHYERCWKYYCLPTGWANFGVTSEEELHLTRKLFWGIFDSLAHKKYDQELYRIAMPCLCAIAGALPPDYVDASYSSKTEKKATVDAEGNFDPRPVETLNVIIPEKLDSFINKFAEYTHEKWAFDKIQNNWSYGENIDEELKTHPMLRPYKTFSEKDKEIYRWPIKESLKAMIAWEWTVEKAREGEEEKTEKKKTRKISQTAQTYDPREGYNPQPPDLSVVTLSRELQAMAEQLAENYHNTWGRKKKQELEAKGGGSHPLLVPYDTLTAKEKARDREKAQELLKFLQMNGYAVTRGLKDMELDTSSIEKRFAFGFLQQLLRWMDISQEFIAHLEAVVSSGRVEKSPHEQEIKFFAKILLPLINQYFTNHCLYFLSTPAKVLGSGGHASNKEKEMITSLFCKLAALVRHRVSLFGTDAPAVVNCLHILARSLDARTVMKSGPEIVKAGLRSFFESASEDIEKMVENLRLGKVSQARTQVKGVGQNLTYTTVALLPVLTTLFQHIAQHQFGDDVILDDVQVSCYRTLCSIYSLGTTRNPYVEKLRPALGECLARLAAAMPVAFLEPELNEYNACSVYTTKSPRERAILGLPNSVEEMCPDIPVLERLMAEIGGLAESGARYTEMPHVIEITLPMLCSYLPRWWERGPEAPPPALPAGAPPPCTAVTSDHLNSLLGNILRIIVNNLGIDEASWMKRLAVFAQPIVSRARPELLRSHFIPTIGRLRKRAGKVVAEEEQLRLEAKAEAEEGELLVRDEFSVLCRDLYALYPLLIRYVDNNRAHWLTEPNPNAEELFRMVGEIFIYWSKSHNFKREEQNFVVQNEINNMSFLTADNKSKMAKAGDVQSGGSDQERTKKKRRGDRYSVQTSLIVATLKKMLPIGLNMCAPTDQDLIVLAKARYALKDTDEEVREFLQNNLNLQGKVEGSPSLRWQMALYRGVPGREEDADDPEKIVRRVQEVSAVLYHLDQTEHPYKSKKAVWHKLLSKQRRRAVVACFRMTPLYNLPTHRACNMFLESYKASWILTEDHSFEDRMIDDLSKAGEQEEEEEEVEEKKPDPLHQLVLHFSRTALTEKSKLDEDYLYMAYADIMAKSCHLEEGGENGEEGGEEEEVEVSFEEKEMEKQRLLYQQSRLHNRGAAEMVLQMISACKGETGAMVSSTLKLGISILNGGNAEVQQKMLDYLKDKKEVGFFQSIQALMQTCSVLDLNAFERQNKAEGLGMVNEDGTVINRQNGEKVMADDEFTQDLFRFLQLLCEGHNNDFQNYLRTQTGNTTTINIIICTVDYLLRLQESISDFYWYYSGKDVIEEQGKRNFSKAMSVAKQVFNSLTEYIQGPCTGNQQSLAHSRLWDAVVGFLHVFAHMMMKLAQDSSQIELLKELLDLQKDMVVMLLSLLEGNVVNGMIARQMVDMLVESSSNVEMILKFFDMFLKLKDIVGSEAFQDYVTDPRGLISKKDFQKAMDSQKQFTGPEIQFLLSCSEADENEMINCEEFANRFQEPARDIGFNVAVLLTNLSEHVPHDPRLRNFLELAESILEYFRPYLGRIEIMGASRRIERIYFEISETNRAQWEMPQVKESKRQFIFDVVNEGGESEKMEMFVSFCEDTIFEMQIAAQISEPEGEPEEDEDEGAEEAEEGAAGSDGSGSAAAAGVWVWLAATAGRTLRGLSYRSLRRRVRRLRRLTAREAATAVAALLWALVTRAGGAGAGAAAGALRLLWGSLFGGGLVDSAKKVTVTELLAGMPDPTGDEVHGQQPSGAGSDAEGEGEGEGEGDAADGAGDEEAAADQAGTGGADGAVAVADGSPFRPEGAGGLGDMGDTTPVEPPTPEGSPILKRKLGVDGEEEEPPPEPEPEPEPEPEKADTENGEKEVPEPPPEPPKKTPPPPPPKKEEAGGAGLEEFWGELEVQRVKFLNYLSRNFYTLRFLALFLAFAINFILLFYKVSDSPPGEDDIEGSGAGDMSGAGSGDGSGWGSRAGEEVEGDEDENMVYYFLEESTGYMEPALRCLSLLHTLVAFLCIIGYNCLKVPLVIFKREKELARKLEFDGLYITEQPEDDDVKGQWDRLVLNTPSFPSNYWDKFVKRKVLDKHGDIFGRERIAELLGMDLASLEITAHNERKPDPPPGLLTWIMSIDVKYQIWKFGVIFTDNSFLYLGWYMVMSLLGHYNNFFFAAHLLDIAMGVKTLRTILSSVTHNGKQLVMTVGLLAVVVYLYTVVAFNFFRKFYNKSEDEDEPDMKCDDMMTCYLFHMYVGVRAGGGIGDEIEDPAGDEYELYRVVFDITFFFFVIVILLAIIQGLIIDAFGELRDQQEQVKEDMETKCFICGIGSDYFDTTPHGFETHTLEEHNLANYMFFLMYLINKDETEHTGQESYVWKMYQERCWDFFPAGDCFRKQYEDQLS
UniProt Q9ET78: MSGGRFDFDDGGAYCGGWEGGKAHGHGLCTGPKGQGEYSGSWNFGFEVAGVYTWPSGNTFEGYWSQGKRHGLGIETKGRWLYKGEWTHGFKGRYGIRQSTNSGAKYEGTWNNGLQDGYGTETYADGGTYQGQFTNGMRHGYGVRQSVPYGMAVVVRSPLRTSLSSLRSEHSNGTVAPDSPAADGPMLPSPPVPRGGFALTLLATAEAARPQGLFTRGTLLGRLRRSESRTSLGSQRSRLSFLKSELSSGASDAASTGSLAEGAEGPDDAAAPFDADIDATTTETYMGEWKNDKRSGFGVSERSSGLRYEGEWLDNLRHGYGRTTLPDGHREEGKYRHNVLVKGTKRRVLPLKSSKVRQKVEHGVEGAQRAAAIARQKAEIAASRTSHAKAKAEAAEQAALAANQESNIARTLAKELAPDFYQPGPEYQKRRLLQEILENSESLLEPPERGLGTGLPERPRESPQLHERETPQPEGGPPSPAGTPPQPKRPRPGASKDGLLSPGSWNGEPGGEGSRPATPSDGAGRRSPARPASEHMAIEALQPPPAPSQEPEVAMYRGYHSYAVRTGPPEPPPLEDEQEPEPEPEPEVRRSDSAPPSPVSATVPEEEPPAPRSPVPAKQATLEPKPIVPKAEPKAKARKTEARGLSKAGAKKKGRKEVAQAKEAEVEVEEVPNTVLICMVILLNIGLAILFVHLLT
UniProt P26883: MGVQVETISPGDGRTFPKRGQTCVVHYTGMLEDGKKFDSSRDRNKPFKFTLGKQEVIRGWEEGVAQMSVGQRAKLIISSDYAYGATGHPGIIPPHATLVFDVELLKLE
UniProt Q923T9: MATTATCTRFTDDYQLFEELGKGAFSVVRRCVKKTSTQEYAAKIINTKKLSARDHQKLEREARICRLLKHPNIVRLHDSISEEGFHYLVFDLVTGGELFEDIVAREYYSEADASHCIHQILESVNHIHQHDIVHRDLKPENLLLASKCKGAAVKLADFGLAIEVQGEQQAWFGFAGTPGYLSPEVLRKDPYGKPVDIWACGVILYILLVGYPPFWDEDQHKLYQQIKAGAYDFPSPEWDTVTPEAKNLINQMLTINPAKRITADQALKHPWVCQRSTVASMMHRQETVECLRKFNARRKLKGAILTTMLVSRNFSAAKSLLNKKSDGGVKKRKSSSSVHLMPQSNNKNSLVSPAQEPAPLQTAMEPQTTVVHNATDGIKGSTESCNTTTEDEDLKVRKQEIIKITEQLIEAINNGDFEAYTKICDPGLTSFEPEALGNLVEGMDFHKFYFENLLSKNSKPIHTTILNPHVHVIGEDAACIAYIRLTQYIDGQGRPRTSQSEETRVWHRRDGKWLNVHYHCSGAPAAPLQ

No constants are given. Whether binding was seen depends on the method and setting. Binding seen in cells or lysates may run through a third protein. Here binding means that the protein was enriched with, or labelled near, the bait; the list need not be complete. For some assays here: No binding means not detected with the bait.

Test [1] has as its target RyR1 (ryanodine receptor 1, skeletal muscle Ca2+ release channel) (mouse (endogenous in mouse skeletal muscle)) (UniProt E9PZQ0). Nature of the test: affinity purification with mass spectrometry; RyR1 antibody IP from gastrocnemius muscle of control (Speg fl/fl) mice, also of Speg-KO and HA-Speg mice; specific: 20x over IgG and P < 0.01.
For test [2], the target named is Jph2 (junctophilin 2) (mouse (endogenous in mouse muscle and heart)) (UniProt Q9ET78). Nature of the test: affinity purification with mass spectrometry; Jph2 antibody IP from gastrocnemius muscle of control mice, also of Speg-KO and HA-Speg mice; specific: 100x over IgG and P < 0.01.
Test [3] addresses RyR2 (ryanodine receptor 2, cardiac Ca2+ release channel) (mouse (endogenous in mouse heart)) (UniProt E9Q401). Kind of test: affinity purification with mass spectrometry; RyR2 IP from hearts of control (Speg fl/fl) mice.
Test [4] concerns the target Jph2 (junctophilin 2) (mouse (endogenous in mouse muscle and heart)) (UniProt Q9ET78). Kind of test: affinity purification with mass spectrometry; Jph2 antibody IP from hearts of control mice; specific: P < 0.01 and 100x over IgG.
For test [5], the target named is T1, Fsd2 (Fibronectin Type III and SPRY Domain Containing 2) (mouse (endogenous in mouse muscle and heart)) (UniProt Q8BZ52).
T1 sequence: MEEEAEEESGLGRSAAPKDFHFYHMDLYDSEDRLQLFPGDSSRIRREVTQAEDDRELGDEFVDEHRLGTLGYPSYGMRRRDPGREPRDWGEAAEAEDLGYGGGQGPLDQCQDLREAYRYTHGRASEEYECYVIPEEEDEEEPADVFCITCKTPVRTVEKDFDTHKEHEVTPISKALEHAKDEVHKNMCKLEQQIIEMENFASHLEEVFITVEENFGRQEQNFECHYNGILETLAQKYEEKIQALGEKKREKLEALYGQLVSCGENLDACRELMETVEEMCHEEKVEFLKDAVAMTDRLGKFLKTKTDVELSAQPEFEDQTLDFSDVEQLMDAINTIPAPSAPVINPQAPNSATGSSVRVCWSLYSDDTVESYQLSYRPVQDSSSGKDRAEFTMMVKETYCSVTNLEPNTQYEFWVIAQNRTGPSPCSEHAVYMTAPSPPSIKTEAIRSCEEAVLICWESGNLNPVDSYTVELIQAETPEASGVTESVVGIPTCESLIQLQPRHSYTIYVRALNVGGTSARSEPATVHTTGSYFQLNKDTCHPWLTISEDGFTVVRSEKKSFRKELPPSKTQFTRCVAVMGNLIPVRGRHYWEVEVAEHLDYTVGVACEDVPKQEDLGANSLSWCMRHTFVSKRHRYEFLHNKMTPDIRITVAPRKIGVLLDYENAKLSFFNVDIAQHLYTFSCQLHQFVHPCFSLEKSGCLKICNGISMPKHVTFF
Kind of test: affinity purification with mass spectrometry; Fsd2 antibody IP from skeletal muscle of control mice; specific: 20x over IgG and P < 0.01.

Test [6] addresses HA-Spegβ (V5/HA-tagged striated muscle preferentially expressed protein kinase β) (mouse (endogenous knock-in in HA-Speg mice)) (UniProt Q62407). Nature of the test: affinity purification with mass spectrometry; HA antibody IP from gastrocnemius muscle of HA-Speg mice; HA antibody pulldowns from WT muscle define nonspecific; >10x purification, Holm-Sidak test and/or FDR; IP buffer 50 mM Tris-HCl pH 7.4, 170 mM NaCl, 1 mM EDTA, 1% NP-40.

For test [7] the target is unchanged. Nature of the test: affinity purification with mass spectrometry; HA antibody IP from hearts of HA-Speg mice.

“Casq1 (calsequestrin 1) (from UniProt O09165 35-405)”: the binding result in test [1] and in test [2] was “binds” in each case.

In the case of “CaMKIIδ (from UniProt Q6PHZ2 1-499) (enzyme)”, the binding result in test [3] and in test [2] was “binds” throughout.

Take “Nfs1 (cysteine desulfurase) (from UniProt Q9Z1J3 18-459) (enzyme)”: the binding entry in test [3] is “binds”.

Regarding “Cacna1c (CaV1.2α1c) (from UniProt Q01815 1-2139)”, in test [4], the binding result is “binds”.

For “Cacna1s (CaV1.1α1s) (from UniProt Q02789 1-1852)”, in test [2], the binding result is reported as “binds”.

Take “RyR1 (ryanodine receptor 1, skeletal muscle Ca2+ release channel) (from UniProt E9PZQ0 1-5035)”: the binding result in test [2] is listed as “binds”.

“Fkbp12 (FK506 binding protein 12) (from UniProt P26883 1-108)”: the binding result in test [2] is “binds”.

Turning to “CaMKIIγ (from UniProt Q923T9 1-529) (enzyme)”, the binding result in test [1] and in test [2] was “binds” each time.

With “CaMKIIα (from UniProt P11798 1-478) (enzyme)”, the binding entry in test [1] and in test [2] was “binds” in each case.

With “Tfg (Trafficking From ER To Golgi Regulator) (from UniProt Q9Z1A1 1-397)”, in test [5], the binding entry is reported as “binds”.

With “Cmya5 (Cardiomyopathy-Associated Protein 5) (from UniProt Q70KF4 1-3739)”, the binding result in test [6] and in test [7] was “binds” throughout.

Regarding “obscurin (Obscn) (from UniProt A2AAJ9 1-8886)”, the binding result in test [1] is listed as “binds”; in test [6] it was “no binding”; in test [2], “binds”.

Take “Ppapdc3 (an inactive sphingosine-1-phosphate phosphatase) (from UniProt Q91WB2 1-271)”: in test [3], the binding result was “binds”.
